PubChem BioAssay AID652243 | Drosophila RNAi Screening Center, 2013
Test: 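Knock-downs that decrease or increase androgen receptor reporter signal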 (primary screen). Cells: Drosophila S2R+ cells. Knock-down reagent: long dsRNA against Drosophila genes. Time to read-out: 72 h (48 h, then 24 h hormone). Conditions: synthetic androgen R1881 at 10 nM for 24 h. Detection: 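Per-well raw luminescence of the androgen-driven firefly reporter and of the Renilla control, two replicates each, without normalisation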. Scale: firefly reporter light: higher = more light from androgen-responsive reporter; Renilla control light: higher = more constitutive control signal (cell number, transfection). Call rule: 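Hit when the log firefly-to-Renilla ratio dropped or increased by a fixed fold versus the mean of GFP or LacZ controls across duplicate plates; lowering cut given as 1.5 and as 3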. Meaning of the calls: active = hit: reporter lowered or raised; inactive = no hit.
The deposit covers about 24,000 reagents; below is a random part of those with a known target gene and a result. Over the whole deposit, 246 (1%) are marked active. 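Plates not normalised; calls are printed but the firefly/Renilla ratio behind them is not deposited; fold cut for lowering reported inconsistently.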 Raw values are not corrected between plates. Entries without a mark were called inactive. The record does not give: the amount of reagent.

ms(3)K81 (male sterile (3) K81) [DRSC14746] gave firefly reporter light, replicate 1 = 2.03e5; firefly reporter light, replicate 2 = 2.16e5; Renilla control light, replicate 1 = 3.27e6; Renilla control light, replicate 2 = 2.87e6. For CG46301 [DRSC01916], the entry reads firefly reporter light, replicate 1 = 8.40e5; firefly reporter light, replicate 2 = 9.45e5; Renilla control light, replicate 1 = 1.47e6; Renilla control light, replicate 2 = 1.65e6. Knock-down of CG46301 [DRSC25566] gave: firefly reporter light, replicate 1 = 8.59e5; firefly reporter light, replicate 2 = 6.98e5; Renilla control light, replicate 1 = 8.94e5; Renilla control light, replicate 2 = 8.20e5. For CG17883 [DRSC07838], the entry reads firefly reporter light, replicate 1 = 1.55e5; firefly reporter light, replicate 2 = 1.02e5; Renilla control light, replicate 1 = 1.31e6; Renilla control light, replicate 2 = 1.40e6. CG15705 [DRSC06576] showed firefly reporter light, replicate 1 = 91645; firefly reporter light, replicate 2 = 66162; Renilla control light, replicate 1 = 1.51e6; Renilla control light, replicate 2 = 1.51e6. Depletion of CG15705 [DRSC29360] gave: firefly reporter light, replicate 1 = 3.26e5; firefly reporter light, replicate 2 = 4.71e5; Renilla control light, replicate 1 = 1.58e6; Renilla control light, replicate 2 = 1.58e6.

Against Cpr47Ea (Cuticular protein 47Ea) [DRSC07333], the entry reads firefly reporter light, replicate 1 = 5.00e5; firefly reporter light, replicate 2 = 3.41e5; Renilla control light, replicate 1 = 2.75e6; Renilla control light, replicate 2 = 2.06e6. Depletion of Hpd (4-hydroxyphenylpyruvate dioxygenase) [DRSC11670] came out at: firefly reporter light, replicate 1 = 42054; firefly reporter light, replicate 2 = 47821; Renilla control light, replicate 1 = 1.97e5; Renilla control light, replicate 2 = 1.60e5. Against Hpd (4-hydroxyphenylpyruvate dioxygenase) [DRSC27639], the values are firefly reporter light, replicate 1 = 2.16e5; firefly reporter light, replicate 2 = 1.54e5; Renilla control light, replicate 1 = 4.07e5; Renilla control light, replicate 2 = 6.86e5. CG15534 [DRSC15070] scored firefly reporter light, replicate 1 = 1.61e5; firefly reporter light, replicate 2 = 1.62e5; Renilla control light, replicate 1 = 1.74e6; Renilla control light, replicate 2 = 1.69e6. Silencing of CG15534 [DRSC26433] came out at: firefly reporter light, replicate 1 = 1.76e5; firefly reporter light, replicate 2 = 2.74e5; Renilla control light, replicate 1 = 3.47e5; Renilla control light, replicate 2 = 5.43e5. With knock-down of CG34251 [DRSC38836], the record shows firefly reporter light, replicate 1 = 7.70e5; firefly reporter light, replicate 2 = 6.91e5; Renilla control light, replicate 1 = 2.04e6; Renilla control light, replicate 2 = 1.62e6.

2 consecutive entries already listed, quoted:
CG17883 [DRSC07838] | firefly reporter light, replicate 1: 1.55e5; firefly reporter light, replicate 2: 1.02e5; Renilla control light, replicate 1: 1.31e6; Renilla control light, replicate 2: 1.40e6
CG15705 [DRSC06576] | firefly reporter light, replicate 1: 91645; firefly reporter light, replicate 2: 66162; Renilla control light, replicate 1: 1.51e6; Renilla control light, replicate 2: 1.51e6
